Experimental findings from the supplement of paper PMC12067093, “Discovery and optimisation of a covalent ligand for TRIM25 and its application to targeted protein ubiquitination” (Chemical Science, 2025) are described below.

The list shows a part of the results.

The target in this assay is INTS9_Q9NV88_637_GHIVLLQEAETLIQIEEDSTHIICDNDEMLR (UniProt Q9NV88). Briefly: probe-labelled cysteine peptide fold change vs DMSO (competition) (log2 fold change); higher = less target engagement (more negative = stronger competition). To be noted: THP-1, incubation time: 4 h.
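Note: competitive profiling in live THP-1 cells: cysteine peptides tagged with an iodoacetamide desthiobiotin (IA-DTB) probe, intensity after compound treatment relative to DMSO-treated cells.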

As for `Cc1cc(C(=O)N2CCCN(C(=O)CCl)CC2)ccc1-c1ccccc1` [compound 10], the “probe-labelled cysteine peptide fold change” value is, setting by setting: (10 µM) -0.0221; (50 µM) -0.0641.
